Experimental data from paper PMC8981703 (BMC Medicine, 2022).

Tested on: Chinese patients with RRMM
Assay: MARCH: safety (TEAEs, CTCAE version 4.03), exposure, dose modification, disposition
Type: in vivo
Description: Response assessment was performed every 28 days on day 1 of each cycle. Adverse event (AE) was assessed using the NCI Common Terminology Criteria for Adverse Events (CTCAE) version 4.03. […] Plasma concentrations were determined at the following distinct time points: pre-dose, 0.5 h, 1 h, 1.5 h, 2 h, 3 h, 4 h, 5 h, 6 h, 8 h, 10 h, 24 h, and 48 h. Pharmacokinetics ethnicity sensitivity analysis was performed to evaluate the potential impact of ethnic factors on the acceptability and difference in the data of Chinese and western patients.
Patients who received at least 1 dose of study treatment (modified intent-to-treat [mITT]/safety population) were used for efficacy and safety analysis. Demographics, baseline disease characteristics, and prior anti-MM therapies were summarized for the mITT populations. For the primary analysis of ORR, the primary endpoint, the sample size of 82 patients would provide 80% power to detect a statistical significance with the target ORR of 28% against the threshold ORR (i.e., null hypothesis) of 15% (one-sided α=0.025); statistical significance would be declared if the lower bound of the 95% confidence interval (CI) would be greater than 15%. Time to event endpoints including PFS, OS, and DOR were analyzed using the Kaplan-Meier method.

Q: Which results are given for `O=C(/C=C\n1cnc(-c2cc(C(F)(F)F)cc(C(F)(F)F)c2)n1)NNc1cnccn1` [selinexor, Selinexor]?
A: median weekly dose received (in vivo): 113.7 mg; median treatment duration (patients who did not have dose reduction): 4.3 weeks; median treatment duration (patients who had dose reduction): 16.6 weeks
